Data as given in PubChem BioAssay AID1259308 (NCATS, 2017).

- Aim: 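Knock-downs that increase output of a recombinant reporter protein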 (primary screen)
- Cells: human HEK293 embryonic kidney cells stably expressing firefly luciferase (HEK-CMV-Luc2-Hygro)
- Knock-down reagent: single siRNA against human genes, 0.8 pmol siRNA per well
- Duration: 72 h
- Read-out: 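Reporter luminescence and viable-cell signal on separate replicate plates, given as percent of non-targeting control and median/MAD z-scores, plus per-cell luciferase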
- Direction: total luciferase, z-score and total luciferase, % of control: higher = more reporter protein produced
- Active means: 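An siRNA counts as active if its total luciferase robust z-score exceeds 3; genes with two or more such siRNAs out of three were retested with fresh siRNAs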
- Meaning of the calls: active = raised luciferase; inactive = no rise
Shown is an unselected part of about 59,000 deposited reagents. About 1,510 of all reagents (2.6%) count as active. 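Calls use total luciferase alone and ignore viability, so some active siRNAs may act by altering cell number.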 Unmarked entries are inactive. The numbers tell different reagents against one gene apart. Not all columns of the deposit are shown.

RAB40AL (RAB40A like) #1 — total luciferase, z-score: 0.662; total luciferase, % of control: 95.1
RAB40AL (RAB40A like) #2 — total luciferase, z-score: 1.05; total luciferase, % of control: 103
RAB40AL (RAB40A like) #3 — total luciferase, z-score: 0.344; total luciferase, % of control: 88.7
SKIDA1 (SKI/DACH domain containing 1) #1 — total luciferase, z-score: -0.387; total luciferase, % of control: 74.2
SKIDA1 (SKI/DACH domain containing 1) #2 — total luciferase, z-score: 0.733; total luciferase, % of control: 96.5
SKIDA1 (SKI/DACH domain containing 1) #3 — total luciferase, z-score: -0.945; total luciferase, % of control: 63.1
UBE2C (ubiquitin conjugating enzyme E2 C) #1 — total luciferase, z-score: 1.07; total luciferase, % of control: 103
UBE2C (ubiquitin conjugating enzyme E2 C) #2 — total luciferase, z-score: 0.0647; total luciferase, % of control: 83.2
UBE2C (ubiquitin conjugating enzyme E2 C) #3 — total luciferase, z-score: -0.772; total luciferase, % of control: 66.5
IL25 (interleukin 25) #1 — total luciferase, z-score: 0.856; total luciferase, % of control: 98.9
IL25 (interleukin 25) #2 — total luciferase, z-score: 0.585; total luciferase, % of control: 93.5
IL25 (interleukin 25) #3 — total luciferase, z-score: -0.634; total luciferase, % of control: 69.3

Entries above whose target name starts with I or i (3):
IL25 (interleukin 25) #1 — total luciferase, z-score: 0.856; total luciferase, % of control: 98.9
IL25 (interleukin 25) #2 — total luciferase, z-score: 0.585; total luciferase, % of control: 93.5
IL25 (interleukin 25) #3 — total luciferase, z-score: -0.634; total luciferase, % of control: 69.3
